Reference: patent publication US7294615B1, “Compounds that associate on the intermolecular level and aggregate bodies that contain them” (priority 1999, dated 2007)
At least one peptide structure holds a part that was inferred or is arguable (an end, a ring closure or a residue).

Legend:
[1] = tested on: Influenza virus A/NIB/44/90M H3N2; experiment: Fetuin binding inhibition (FBI) test, inhibition of viral cell adhesion
[2] = tested on: influenza virus A/NIB/23/89M H1N1; experiment: FBI test, inhibition of influenza viruses (Comparison Example 1); type: binding
[3] = Light scattering, particle size of aggregates; type: physicochemical; conditions: aqueous solution, He-Ne laser
Experimental: The formation of aggregates in solution can be observed by light scattering experiments or by gel permeation chromatography.
The light scattering experiments were carried out using the following apparatus: Coultronics Coulter N4-MD (He-Ne laser, λ=632.8 nm, measurement of the scattering at an angle of 62.5° to the incident light beam), Spectra-Physics 164 (argon laser, λ=528.7 nm and λ=611.5 nm, measurement of the scattering at an angle of 90° to the incident light beam).
The investigation into the light scattering of a 50 mM solution of compound (22a) in water was carried out using a Spectra-Physics 164 argon laser (plasma lines λ=528.7 and 611.5 nm), the scattering was measured at an angle of 90° to the incident light beam. The particle size thereby determined was <2.5 nm. 50 μl of 0.8M NaHCO3 solution were added to the resulting solution. The light scattering was measured, as described above, the average particle size thereby determined was 200-400 nm.
50 μl of a 0.8M HCl was added to the resulting solution, and the sample was investigated by means of light scattering, as described above. The particle size thereby determined was <2.5 nm.

[4] = Aggregate formation (TLC, 1H-NMR, light scattering, gel permeation HPLC); type: physicochemical; conditions: aqueous solution
[5] = tested on: influenza virus B/NIB/15/89M; experiment: FBI test, inhibition of influenza viruses (Comparison Example 1); type: binding

| Structure (SMILES) | Relative activity ([1]; Neu5AcαBn as reference compound (=1), specific activity per Neu5Ac group) | Activity in inhibition of influenza virus relative to 6′SLN trisaccharide [2] | Aggregate formation by laser light scattering [3] | Activity in inhibition of influenza virus relative to 6′SLN trisaccharide [1] | Formation of aggregates [4] | Formation of aggregates ([4]; listed as [Neu5Acα2-6Galβ1-4GlcNAcβ1-NHCOCH2NH—CO(CH2)4CO—(NHCH2—CO)3—NHCH2—]4C) | Activity in inhibition of influenza virus relative to 6′SLN trisaccharide [5] |
| --- | --- | --- | --- | --- | --- | --- | --- |
| CC(=O)N[C@H]1[C@H]([C@H](O)[C@H](O)CO)O[C@@](OCc2ccc(NC(=O)CNC(=O)CCCCC(=O)NCC(=O)N[C@@H](CCC(=O)O)C(=O)NCC(=O)NCC(CNC(=O)CNC(=O)[C@H](CCC(=O)O)NC(=O)CNC(=O)CCCCC(=O)NCC(=O)Nc3ccc(CO[C@]4(C(=O)O)C[C@H](O)[C@@H](NC(C)=O)[C@H]([C@H](O)[C@H](O)CO)O4)cc3)(CNC(=O)CNC(=O)[C@H](CCC(=O)O)NC(=O)CNC(=O)CCCCC(=O)NCC(=O)Nc3ccc(CO[C@]4(C(=O)O)C[C@H](O)[C@@H](NC(C)=O)[C@H]([C@H](O)[C@H](O)CO)O4)cc3)CNC(=O)CNC(=O)[C@H](CCC(=O)O)NC(=O)CNC(=O)CCCCC(=O)NCC(=O)Nc3ccc(CO[C@]4(C(=O)O)C[C@H](O)[C@@H](NC(C)=O)[C@H]([C@H](O)[C@H](O)CO)O4)cc3)cc2)(C(=O)O)C[C@@H]1O [[Neu5Ac-Gab-Ad-GlyGluGly-NHCH2—]4C] | 5 |  |  |  |  |  |  |
| CC(=O)N[C@@H]1[C@@H](O)[C@H](O[C@@H]2O[C@H](CO[C@]3(C(=O)O)C[C@H](O)[C@@H](NC(C)=O)[C@H]([C@H](O)[C@H](O)CO)O3)[C@H](O)[C@H](O)[C@H]2O)[C@@H](CO)O[C@H]1NC(=O)CNC(=O)CCCCC(=O)NCC(=O)NCC(=O)NCC(=O)NCC(CNC(=O)CNC(=O)CNC(=O)CNC(=O)CCCCC(=O)NCC(=O)N[C@@H]1O[C@H](CO)[C@@H](O[C@@H]2O[C@H](CO[C@]3(C(=O)O)C[C@H](O)[C@@H](NC(C)=O)[C@H]([C@H](O)[C@H](O)CO)O3)[C@H](O)[C@H](O)[C@H]2O)[C@H](O)[C@H]1NC(C)=O)(CNC(=O)CNC(=O)CNC(=O)CNC(=O)CCCCC(=O)NCC(=O)N[C@@H]1O[C@H](CO)[C@@H](O[C@@H]2O[C@H](CO[C@]3(C(=O)O)C[C@H](O)[C@@H](NC(C)=O)[C@H]([C@H](O)[C@H](O)CO)O3)[C@H](O)[C@H](O)[C@H]2O)[C@H](O)[C@H]1NC(C)=O)CNC(=O)CNC(=O)CNC(=O)CNC(=O)CCCCC(=O)NCC(=O)N[C@@H]1O[C@H](CO)[C@@H](O[C@@H]2O[C@H](CO[C@]3(C(=O)O)C[C@H](O)[C@@H](NC(C)=O)[C@H]([C@H](O)[C@H](O)CO)O3)[C@H](O)[C@H](O)[C@H]2O)[C@H](O)[C@H]1NC(C)=O [{Neu5Acα2-6Galβ1-4GlcNAcβ1-NHCOCH2NH—CO(CH2)4CO—(NHCH2CO)3—NHCH2—}4C] |  | comparable with that of 6′SLN trisaccharide | do not give any indication of the formation of aggregates | comparable with that of 6′SLN trisaccharide | does not form aggregates | does not, however, form aggregates | comparable with that of 6′SLN trisaccharide |
